Source: PMC11687841
Results are given in words; binding and its absence hold for the method and conditions named. In cells and extracts the contact can be indirect. Some binding calls cover weakened binding; strength is not graded here. One block for each molecule: values may come before it.

Sequences of proteins named here, by UniProt entry; tags and fusion partners are left off.
UniProt O43707: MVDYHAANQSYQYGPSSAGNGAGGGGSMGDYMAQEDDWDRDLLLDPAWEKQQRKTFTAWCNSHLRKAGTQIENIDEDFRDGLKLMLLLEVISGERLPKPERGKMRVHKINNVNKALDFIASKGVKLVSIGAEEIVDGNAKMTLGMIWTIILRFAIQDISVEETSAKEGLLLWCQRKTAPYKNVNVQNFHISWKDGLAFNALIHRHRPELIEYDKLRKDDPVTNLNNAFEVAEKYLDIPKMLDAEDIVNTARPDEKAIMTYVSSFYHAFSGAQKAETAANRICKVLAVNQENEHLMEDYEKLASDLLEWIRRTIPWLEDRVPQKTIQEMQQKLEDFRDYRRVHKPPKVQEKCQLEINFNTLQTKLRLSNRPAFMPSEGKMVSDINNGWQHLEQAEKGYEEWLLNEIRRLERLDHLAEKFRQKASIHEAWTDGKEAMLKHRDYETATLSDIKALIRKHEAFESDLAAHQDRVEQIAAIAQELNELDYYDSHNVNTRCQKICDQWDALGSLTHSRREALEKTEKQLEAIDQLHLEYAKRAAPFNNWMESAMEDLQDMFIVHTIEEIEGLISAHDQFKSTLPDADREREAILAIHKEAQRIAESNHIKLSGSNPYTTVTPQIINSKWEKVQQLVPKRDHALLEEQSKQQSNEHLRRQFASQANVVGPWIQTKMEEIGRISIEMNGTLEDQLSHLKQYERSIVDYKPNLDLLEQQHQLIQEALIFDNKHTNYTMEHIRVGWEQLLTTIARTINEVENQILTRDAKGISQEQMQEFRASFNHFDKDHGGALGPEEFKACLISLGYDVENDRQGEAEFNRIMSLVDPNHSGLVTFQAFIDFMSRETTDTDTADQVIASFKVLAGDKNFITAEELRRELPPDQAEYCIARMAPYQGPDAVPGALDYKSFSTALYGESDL
UniProt Q9QXQ0: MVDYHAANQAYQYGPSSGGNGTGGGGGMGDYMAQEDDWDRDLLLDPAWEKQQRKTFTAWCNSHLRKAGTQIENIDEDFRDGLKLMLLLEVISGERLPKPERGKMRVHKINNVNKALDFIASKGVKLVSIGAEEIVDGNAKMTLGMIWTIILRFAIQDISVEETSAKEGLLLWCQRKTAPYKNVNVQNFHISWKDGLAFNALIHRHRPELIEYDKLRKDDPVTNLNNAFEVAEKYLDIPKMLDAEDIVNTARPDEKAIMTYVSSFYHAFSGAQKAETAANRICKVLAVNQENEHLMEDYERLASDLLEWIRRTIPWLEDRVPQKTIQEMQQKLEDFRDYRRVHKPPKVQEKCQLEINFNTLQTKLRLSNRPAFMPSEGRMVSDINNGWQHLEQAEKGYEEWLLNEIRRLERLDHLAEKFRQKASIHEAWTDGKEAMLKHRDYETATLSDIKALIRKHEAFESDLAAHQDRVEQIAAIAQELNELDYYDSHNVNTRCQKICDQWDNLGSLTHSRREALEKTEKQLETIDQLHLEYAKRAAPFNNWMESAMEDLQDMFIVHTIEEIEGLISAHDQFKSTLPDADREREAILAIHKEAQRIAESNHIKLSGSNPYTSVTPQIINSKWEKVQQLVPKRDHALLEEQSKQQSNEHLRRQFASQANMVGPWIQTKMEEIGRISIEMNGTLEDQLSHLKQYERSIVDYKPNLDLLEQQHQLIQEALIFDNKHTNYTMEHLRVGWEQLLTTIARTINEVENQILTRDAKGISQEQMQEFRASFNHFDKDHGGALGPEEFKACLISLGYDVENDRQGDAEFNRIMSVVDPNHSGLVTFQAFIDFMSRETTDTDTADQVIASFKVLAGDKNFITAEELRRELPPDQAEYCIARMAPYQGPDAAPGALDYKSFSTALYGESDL

Experiments:
[1] = target: T1, Na+/K+/2Cl- cotransporter NKCC2 (solute carrier family 12 member 1) (rat (endogenous in medullary TAL)) (UniProt P55016); assay: co-IP; rat medullary TAL lysate (100 µg, precleared with protein A/G agarose) incubated with 2 µg anti-NKCC2 (carboxyl terminus) antibody at 4°C; ACTN4 detected by Western blot
T1 sequence: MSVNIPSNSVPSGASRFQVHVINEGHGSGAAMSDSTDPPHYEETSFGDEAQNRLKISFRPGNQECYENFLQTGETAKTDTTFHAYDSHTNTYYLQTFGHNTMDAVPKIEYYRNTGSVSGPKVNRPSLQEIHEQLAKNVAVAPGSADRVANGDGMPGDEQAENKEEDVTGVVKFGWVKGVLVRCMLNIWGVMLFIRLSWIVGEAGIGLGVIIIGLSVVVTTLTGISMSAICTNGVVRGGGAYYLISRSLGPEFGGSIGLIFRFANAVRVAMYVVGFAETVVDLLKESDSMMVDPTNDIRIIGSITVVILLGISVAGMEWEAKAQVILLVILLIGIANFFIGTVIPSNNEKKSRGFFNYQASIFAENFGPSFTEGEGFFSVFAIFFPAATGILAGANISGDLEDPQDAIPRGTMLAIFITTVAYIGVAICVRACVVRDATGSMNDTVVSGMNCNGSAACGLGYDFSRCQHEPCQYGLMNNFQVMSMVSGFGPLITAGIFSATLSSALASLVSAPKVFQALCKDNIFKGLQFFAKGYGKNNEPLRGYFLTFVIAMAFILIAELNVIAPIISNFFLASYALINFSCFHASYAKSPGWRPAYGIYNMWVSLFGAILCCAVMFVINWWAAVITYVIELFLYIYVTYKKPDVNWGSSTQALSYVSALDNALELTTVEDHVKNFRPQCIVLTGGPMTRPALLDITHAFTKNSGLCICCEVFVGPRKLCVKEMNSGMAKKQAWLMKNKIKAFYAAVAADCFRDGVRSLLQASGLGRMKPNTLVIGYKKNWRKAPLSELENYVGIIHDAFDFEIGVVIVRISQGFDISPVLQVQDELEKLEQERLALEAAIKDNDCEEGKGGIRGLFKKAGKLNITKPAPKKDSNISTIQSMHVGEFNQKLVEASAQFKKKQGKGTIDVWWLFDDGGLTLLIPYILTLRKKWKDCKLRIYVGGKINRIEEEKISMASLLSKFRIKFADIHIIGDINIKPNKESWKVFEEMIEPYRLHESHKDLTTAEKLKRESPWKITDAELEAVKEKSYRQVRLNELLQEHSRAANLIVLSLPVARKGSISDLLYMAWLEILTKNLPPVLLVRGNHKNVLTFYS

[2] = target: GST-full-length ACTN4 (glutathione-S-transferase-fusion actinin-4) (UniProt O43707); assay: pull-down; purified GST-ACTN4 (full length) or GST alone on glutathione beads with rat TAL lysate; NKCC2 detected by Western blot; only the target purified

binding [1]: binds
Molecule: actinin-4 (ACTN4), endogenous (from UniProt Q9QXQ0 1-911)

binding [2]: binds
B1: Na+/K+/2Cl- cotransporter NKCC2 (solute carrier family 12 member 1) (protein, UniProt P55016 1-1095)
chain: T1 sequence
